Reference: paper PMC10009644
No constants are given. Whether binding was seen depends on the method and setting. Binding seen in cells or lysates may run through a third protein. Some binding calls cover weakened binding; strength is not graded here.

The chains behind the UniProt entries cited, without tags or fusion partners.
UniProt P40763: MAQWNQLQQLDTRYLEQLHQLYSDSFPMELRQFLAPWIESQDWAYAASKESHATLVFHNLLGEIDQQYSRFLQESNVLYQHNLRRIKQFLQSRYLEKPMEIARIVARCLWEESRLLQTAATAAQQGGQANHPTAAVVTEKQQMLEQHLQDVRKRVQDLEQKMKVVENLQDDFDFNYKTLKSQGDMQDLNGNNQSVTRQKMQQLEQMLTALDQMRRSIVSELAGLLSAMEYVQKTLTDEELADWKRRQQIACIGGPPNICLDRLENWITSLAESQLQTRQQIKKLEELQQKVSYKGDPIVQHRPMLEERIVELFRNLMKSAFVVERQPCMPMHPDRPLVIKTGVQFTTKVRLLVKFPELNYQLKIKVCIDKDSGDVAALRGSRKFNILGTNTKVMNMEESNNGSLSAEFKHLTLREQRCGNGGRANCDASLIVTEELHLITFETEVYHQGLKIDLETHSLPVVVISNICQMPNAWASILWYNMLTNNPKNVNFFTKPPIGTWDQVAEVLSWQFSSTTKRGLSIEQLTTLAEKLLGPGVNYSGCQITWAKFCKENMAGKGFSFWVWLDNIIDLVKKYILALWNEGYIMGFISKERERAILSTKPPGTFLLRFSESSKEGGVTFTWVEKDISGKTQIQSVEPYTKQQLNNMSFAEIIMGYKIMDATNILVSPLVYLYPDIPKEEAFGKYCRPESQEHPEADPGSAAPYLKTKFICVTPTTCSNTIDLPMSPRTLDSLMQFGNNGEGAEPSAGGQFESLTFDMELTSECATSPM
UniProt O75530: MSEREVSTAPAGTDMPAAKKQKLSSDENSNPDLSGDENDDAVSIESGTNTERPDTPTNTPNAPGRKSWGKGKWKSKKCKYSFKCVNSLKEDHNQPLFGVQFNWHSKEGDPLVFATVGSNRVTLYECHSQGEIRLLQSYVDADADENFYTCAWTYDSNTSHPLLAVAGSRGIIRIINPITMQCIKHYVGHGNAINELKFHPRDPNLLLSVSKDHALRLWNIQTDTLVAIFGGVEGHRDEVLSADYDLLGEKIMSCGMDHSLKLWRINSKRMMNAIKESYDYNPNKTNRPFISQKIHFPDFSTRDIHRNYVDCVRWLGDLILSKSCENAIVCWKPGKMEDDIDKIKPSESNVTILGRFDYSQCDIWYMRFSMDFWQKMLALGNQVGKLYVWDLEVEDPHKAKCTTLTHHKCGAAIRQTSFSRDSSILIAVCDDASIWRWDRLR

Target: HA-tagged STAT3 (signal transducer and activator of transcription 3) (UniProt P40763)
Assay: co-IP; HEK293 cells transfected with HA- and FLAG-tagged constructs; lysed in Pierce IP Lysis Buffer; IP with anti-FLAG (anti-DYKDDDDK magnetic agarose, 4°C overnight) or anti-HA antibody, washed 3x with cold PBS, immunoblot for the other tag

- binding: binds
Substance: FLAG-tagged full-length EED (from UniProt O75530 1-441)
